Reference: publication PMC11992618, “Development of cyclopeptide inhibitors specifically disrupting FXR–coactivator interaction in the intestine as a novel therapeutic strategy for MASH” (Life Metabolism, 2025)

Biological target: 6*His-hFXRα-LBD (human farnesoid X receptor alpha, ligand-binding domain) (human)
Test: AlphaScreen or HTRF; 100 nmol/L 6*His-hFXRα-LBD, 100 nmol/L biotinylated SRC2-3 or NCoR2 peptide, Ivermectin (5 μmol/L) with or without DC646 at 11 μmol/L; same buffer, pH 7.4, room temperature; both purified

- binding: binds
B1: Biotin-labeled NCoR2 peptide (peptide)
peptide: GHSFADPASNLGLEDIIRKALMGSF
modifications: biotin on the N-terminus (printed as Bio-)

No constants are given. Whether binding was seen depends on the method and setting. Binding can be weak; no strength is given.
